For at least one compound, name, drawing or mass did not settle the structure.
Test system: balb/c mice with DNCB-induced atopic dermatitis
Test: DNCB-induced atopic dermatitis model
Assay type: in vivo
Settings: 0.1% dexamethasone, topical
From the text: (5) Reverse transcription-polymerase chain reaction (RT-PCR) quantitative real time PCR: Total RNA was isolated from cells and tissues, and cDNA was synthesized using a reverse transcriptase and was then reacted with cytokine primers to be analyzed, followed by PCR and real-time PCR. The RT-PCR products were subjected to electrophoresis using 1.5% agarose gel for analysis.
A. Experimental animal: 5-week-old male BALB/c mice obtained from. […]
D. Biopsy: After application of the test material was completed, the dorsal skin of each experimental animal was incised under heart anesthesia, some of them were rapidly frozen using liquid nitrogen and stored at −70° C. before analysis, and the remainder was fixed with 10% neutral buffered formalin for 24 hours. […] In addition, toluidine blue staining was performed to observe a quantitative change of mast cells. […]
E. IgE level measurement: IgE concentration in blood was measured by (SHIBAYAGI, Japan) using serum collected when autopsy was performed. […] Absorbance of the sample was measured at 450 nm using ELISA (Molecular devices Emax).

Q: With C[C@@H]1C[C@H]2[C@@H]3CCC4=CC(=O)C=C[C@]4(C)[C@@]3(F)[C@@H](O)C[C@]2(C)[C@@]1(O)C(=O)CO [dexamethasone, reference compound] as the molecule, how does the “DNCB-induced skin symptoms except for erythema (visual observation)” value read?
A: mostly eliminated

Reference: US10278931B2, “Composition for treatment of inflammatory bowel disease and atopic dermatitis” (INNOPHARMASCREEN INC., priority 2015, dated 2019)
